This passage reports binding results from PMC8816931.

Protein sequences, listed by entry. Tags and fused reporters are not part of them. Lines headed by an entry give the natural chain unless they say otherwise; changes in a name come on top. Residues count along the entry.
UniProt A2AFI6: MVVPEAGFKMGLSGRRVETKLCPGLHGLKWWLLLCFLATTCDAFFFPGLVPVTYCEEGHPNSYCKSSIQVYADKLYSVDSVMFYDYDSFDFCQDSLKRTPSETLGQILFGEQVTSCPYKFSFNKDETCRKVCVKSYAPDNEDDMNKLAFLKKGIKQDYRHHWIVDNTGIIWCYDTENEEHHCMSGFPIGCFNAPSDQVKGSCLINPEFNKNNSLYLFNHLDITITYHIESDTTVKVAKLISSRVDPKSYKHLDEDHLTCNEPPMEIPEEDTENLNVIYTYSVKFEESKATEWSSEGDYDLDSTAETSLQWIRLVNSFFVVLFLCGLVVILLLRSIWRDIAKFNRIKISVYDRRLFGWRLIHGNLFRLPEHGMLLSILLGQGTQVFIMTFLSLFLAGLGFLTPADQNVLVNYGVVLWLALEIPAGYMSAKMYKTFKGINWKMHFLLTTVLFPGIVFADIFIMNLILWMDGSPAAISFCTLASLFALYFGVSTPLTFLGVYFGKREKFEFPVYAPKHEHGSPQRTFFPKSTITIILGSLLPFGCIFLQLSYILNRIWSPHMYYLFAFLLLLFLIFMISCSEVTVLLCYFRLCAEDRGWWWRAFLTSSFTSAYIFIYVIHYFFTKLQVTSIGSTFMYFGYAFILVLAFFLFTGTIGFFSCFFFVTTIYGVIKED
UniProt Q6QI06: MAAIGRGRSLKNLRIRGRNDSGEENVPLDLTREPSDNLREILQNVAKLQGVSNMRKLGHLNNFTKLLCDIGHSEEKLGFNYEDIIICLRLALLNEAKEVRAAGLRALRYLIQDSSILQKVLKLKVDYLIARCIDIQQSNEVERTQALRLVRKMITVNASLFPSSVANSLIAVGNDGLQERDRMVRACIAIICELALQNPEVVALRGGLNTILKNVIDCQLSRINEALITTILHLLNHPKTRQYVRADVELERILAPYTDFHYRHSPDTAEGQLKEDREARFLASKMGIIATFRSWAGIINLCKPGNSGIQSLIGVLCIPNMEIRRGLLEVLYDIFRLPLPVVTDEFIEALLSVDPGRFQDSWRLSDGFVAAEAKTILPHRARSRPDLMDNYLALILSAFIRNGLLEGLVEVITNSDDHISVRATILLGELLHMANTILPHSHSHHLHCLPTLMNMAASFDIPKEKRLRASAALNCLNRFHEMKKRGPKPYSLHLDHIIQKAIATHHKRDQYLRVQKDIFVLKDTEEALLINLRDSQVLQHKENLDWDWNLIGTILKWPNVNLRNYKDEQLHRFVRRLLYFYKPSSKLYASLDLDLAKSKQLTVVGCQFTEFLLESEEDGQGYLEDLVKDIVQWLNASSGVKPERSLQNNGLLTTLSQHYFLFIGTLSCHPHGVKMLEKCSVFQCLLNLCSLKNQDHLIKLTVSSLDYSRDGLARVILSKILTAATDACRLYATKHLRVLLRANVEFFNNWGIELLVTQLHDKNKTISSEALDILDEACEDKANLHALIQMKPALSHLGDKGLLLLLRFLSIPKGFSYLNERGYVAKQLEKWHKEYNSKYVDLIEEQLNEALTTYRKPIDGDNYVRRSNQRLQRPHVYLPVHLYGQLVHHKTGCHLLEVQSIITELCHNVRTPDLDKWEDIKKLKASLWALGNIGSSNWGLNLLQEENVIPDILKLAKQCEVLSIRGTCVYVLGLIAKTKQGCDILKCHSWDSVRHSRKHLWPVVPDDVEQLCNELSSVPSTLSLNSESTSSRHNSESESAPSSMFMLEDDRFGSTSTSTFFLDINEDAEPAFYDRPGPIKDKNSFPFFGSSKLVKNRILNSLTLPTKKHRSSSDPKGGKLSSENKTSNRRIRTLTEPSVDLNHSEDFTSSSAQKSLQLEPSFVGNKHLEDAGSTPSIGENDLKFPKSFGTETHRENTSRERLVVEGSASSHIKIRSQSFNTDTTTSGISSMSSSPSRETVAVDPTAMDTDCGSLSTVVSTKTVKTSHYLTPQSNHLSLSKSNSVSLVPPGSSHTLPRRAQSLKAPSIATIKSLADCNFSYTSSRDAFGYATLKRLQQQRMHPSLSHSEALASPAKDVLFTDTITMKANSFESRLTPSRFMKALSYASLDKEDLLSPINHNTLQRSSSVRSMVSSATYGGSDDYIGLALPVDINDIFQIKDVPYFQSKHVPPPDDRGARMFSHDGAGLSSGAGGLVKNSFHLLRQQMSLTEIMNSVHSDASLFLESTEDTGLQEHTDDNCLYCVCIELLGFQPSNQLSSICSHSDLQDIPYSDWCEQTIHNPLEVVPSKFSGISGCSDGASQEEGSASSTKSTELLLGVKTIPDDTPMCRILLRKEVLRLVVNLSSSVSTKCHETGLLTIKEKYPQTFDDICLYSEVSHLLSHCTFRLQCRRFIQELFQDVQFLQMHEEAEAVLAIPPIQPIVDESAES
UniProt O08586: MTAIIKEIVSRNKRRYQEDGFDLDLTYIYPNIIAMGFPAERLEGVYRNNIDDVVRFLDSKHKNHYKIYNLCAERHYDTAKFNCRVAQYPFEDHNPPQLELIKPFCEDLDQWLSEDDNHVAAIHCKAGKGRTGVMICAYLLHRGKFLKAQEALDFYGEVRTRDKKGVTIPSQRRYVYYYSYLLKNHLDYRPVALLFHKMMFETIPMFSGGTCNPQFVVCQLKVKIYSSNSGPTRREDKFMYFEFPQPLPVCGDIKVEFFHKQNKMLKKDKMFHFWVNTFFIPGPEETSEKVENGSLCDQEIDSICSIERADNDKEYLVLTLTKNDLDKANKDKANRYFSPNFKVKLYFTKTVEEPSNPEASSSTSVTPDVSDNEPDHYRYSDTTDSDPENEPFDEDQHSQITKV
UniProt O88516, residues 33-592: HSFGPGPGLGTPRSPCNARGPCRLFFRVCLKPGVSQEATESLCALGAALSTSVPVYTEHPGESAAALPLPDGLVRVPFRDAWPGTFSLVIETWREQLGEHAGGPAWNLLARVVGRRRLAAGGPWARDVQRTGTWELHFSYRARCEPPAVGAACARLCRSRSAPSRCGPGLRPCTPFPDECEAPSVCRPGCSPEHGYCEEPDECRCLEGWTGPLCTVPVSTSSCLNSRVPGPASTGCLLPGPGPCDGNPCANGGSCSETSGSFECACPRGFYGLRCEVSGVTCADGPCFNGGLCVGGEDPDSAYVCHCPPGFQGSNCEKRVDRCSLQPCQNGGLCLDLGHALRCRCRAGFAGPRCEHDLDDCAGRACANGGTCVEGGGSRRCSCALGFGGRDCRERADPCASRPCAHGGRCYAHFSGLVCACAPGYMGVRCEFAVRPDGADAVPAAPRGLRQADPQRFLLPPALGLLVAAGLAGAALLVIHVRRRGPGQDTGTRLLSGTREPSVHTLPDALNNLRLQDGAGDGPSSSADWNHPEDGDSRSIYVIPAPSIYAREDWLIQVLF
UniProt O35516, residues 26-2473: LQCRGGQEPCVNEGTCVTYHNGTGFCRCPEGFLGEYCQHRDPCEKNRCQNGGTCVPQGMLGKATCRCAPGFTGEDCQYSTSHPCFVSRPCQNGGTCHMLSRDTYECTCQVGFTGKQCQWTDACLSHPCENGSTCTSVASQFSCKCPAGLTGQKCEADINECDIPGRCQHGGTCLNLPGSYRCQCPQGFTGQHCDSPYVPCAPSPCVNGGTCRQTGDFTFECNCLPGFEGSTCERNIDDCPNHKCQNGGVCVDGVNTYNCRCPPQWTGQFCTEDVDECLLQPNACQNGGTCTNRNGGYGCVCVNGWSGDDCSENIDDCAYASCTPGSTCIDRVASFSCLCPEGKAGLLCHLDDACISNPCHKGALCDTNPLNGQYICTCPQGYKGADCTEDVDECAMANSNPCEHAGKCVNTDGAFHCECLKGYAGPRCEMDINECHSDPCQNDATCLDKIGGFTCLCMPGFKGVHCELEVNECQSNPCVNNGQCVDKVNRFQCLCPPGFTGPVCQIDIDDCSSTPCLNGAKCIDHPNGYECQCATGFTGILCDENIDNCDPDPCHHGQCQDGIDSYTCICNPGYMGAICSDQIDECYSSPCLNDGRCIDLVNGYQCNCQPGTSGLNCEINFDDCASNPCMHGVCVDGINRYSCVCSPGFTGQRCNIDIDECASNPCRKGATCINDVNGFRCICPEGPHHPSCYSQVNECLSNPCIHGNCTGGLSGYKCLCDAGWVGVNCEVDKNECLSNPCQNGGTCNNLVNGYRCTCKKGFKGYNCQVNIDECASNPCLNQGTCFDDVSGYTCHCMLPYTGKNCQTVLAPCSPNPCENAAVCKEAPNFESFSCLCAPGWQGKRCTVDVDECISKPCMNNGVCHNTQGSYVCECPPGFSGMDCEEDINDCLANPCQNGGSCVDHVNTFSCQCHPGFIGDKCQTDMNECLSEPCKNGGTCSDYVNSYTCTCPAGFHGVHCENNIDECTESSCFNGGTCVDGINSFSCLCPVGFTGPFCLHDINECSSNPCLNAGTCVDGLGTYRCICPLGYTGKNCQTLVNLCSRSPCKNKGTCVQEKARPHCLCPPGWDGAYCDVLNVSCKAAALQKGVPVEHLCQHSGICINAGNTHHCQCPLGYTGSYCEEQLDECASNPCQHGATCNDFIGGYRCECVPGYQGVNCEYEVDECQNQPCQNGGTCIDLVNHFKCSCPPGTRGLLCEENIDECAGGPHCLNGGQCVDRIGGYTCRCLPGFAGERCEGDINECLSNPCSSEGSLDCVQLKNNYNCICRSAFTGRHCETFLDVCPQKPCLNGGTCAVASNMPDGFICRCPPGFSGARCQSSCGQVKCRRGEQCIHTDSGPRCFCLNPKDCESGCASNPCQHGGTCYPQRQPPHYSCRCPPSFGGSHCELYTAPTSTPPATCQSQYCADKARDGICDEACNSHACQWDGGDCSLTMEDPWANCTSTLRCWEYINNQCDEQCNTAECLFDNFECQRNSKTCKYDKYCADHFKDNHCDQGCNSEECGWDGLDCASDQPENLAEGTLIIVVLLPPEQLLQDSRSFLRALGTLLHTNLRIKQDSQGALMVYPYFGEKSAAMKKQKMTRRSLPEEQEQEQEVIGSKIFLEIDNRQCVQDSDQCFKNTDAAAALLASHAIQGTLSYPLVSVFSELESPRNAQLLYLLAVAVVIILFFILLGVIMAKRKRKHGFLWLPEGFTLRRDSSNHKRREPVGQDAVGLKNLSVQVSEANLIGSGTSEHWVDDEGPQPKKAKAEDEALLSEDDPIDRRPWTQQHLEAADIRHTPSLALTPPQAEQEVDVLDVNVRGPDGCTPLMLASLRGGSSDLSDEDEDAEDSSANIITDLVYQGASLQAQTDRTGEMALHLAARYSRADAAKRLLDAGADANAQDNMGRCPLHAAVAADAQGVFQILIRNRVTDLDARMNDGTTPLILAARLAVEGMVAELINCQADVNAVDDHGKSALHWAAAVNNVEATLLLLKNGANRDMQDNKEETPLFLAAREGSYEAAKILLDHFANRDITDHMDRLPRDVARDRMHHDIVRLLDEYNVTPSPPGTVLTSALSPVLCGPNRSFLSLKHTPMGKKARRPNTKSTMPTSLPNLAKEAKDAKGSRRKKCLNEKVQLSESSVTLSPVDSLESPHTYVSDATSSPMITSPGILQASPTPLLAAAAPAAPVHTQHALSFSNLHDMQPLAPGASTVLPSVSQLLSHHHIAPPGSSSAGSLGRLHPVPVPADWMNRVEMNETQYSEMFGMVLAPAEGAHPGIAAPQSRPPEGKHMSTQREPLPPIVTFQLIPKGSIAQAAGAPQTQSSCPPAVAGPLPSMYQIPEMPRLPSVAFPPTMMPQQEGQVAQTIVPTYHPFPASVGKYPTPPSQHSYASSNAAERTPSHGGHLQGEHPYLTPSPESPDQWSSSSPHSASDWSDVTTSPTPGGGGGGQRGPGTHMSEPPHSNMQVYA

Assay in all cases: co-IP; 2.5 ug rabbit antibody coupled to protein A/G beads, lysate of 400 mouse oocytes, IP buffer (20 mM Tris-HCl pH 8.0, 10 mM EDTA, 1 mM EGTA, 150 mM NaCl, 0.05% Triton X-100, 0.05% Nonidet P-40), overnight at 4 °C, three washes, SDS-PAGE and western blot; rabbit IgG as control
A general note: In western blotting, separated proteins are transferred to a membrane and probed.

The target in experiment [1] is Gm364 (mouse) (UniProt A2AFI6).
The target of experiment [2] is p-RICTOR (mouse (endogenous in oocytes)) (UniProt Q6QI06).
Experiment [3] deals with PTEN (mouse (endogenous in oocytes)) (UniProt O08586).

No constants are given. Whether binding was seen depends on the method and setting. In cells and extracts the contact can be indirect. For some of these results: Binding calls can cover weak binding; strength is not graded here.

On to “DLL3 (from UniProt O88516 33-592) (ligand)”, for which, in experiment [1], the binding entry was “binds”.
For Gm364 (from UniProt A2AFI6), the binding entry in experiment [2] and in experiment [3] was “no binding” each time.
Take “Notch2 (from UniProt O35516 26-2473) (receptor)”: the binding entry in experiment [1] is listed as “binds”.
